{"source": "PubChem BioAssay AID504834", "about": "(National Center for Advancing Translational Sciences (NCATS), 2011)", "note": "Out of some 320,000 compounds screened, about 22,000 (6.9%) were called active. This list was built around the results that the source calls inconclusive (neither active nor inactive); the mix of calls is not that of the screen. Calls follow the shape of the dose curve; as a rule, active = well fitted inhibition curve with a large enough effect; inconclusive = small, poorly fitted or top-dose-only effect, or another doubt; inactive = no such curve, though single readings can be large or run the other way. Where the call is inconclusive, the potency comes from a doubtful curve fit."}
{"experiment": "Primary qHTS for delayed death inhibitors of the malarial parasite plastid, 96 hour incubation; also: potency is read from the fitted curve at half-maximal effect", "conditions": "P. falciparum luciferase reporter growth; series mostly up to 28.7 µM", "summary_of_the_method": "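Two-generation exposure (96 h) targets delayed-death phenotype. Reporter parasites carrying integrated firefly luciferase, in red cells at 2% hematocrit and 0.05% parasitemia final, kept at 37 C, 5% CO2; luminescence loss indicates inhibition.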"}
{"compound": "O=C(NCc1ccco1)C1CC(c2cc(C(F)(F)F)cc(C(F)(F)F)c2)=NO1", "note": "(centres undefined)", "Potency": "inactive"}
{"compound": "O=C(COC(=O)c1ccc2c(c1)OCO2)Nc1ccccc1F", "Potency": "inactive"}
{"compound": "O=C(COC(=O)c1n[nH]c2ccccc12)NC(=O)NCc1ccco1", "Potency": "inconclusive: 18.5 µM [inhibitor, single point]"}
{"compound": "Cc1sc2ncnc(SCC(=O)NC3CCCC3)c2c1C", "Potency": "inconclusive: 18.5 µM [inhibitor, single point]"}
{"compound": "Cc1ccc(-c2nnnn2-c2ccc(C)cc2)cc1", "Potency": "inactive"}
{"compound": "COc1ccc(/C=N/NC2=NS(=O)(=O)c3ccccc32)cc1OC", "Potency": "inconclusive: 0.0657 µM [inhibitor, full curve, poor fit]"}
{"compound": "Cc1cc(NS(=O)(=O)c2ccc(NC(NC(=O)C(C(F)(F)F)C(F)(F)F)(C(F)(F)F)C(F)(F)F)cc2)no1", "Potency": "inactive"}
{"compound": "O=C(C1CCN(S(=O)(=O)c2cccnc2)CC1)N1CCN(c2ccccc2Cl)CC1", "Potency": "inactive"}
{"compound": "Cc1cc(C)c(S(C)(=O)=O)c(Oc2ccc(C(C)(C)C)cc2)n1", "Potency": "inconclusive: 0.0026 µM [inhibitor, full curve, poor fit]"}
{"compound": "CC(=O)C1=C(O)C(=O)N(c2ccc(F)cc2)C1c1ccc(C)cc1", "note": "(centres undefined)", "Potency": "inconclusive: 18.5 µM [inhibitor, single point]"}
{"compound": "COc1ccc(NC(=O)CCN2CCN(c3ccccc3F)CC2)c(OC)c1", "Potency": "active: 10.4 µM"}
{"compound": "CC(=O)c1ccc(N2CCN(C(=O)c3cccs3)CC2)c(F)c1", "Potency": "inconclusive: 14.7 µM [inhibitor, partial curve, poor fit]"}
{"compound": "CCOC(=O)C1=C(c2ccccc2)NC(=O)NC1c1ccsc1", "note": "(centres undefined)", "Potency": "inactive"}
{"compound": "Cc1ccc(Cl)cc1NC(=O)C1CCCN(S(C)(=O)=O)C1", "note": "(centres undefined)", "Potency": "active: 10.4 µM"}
{"compound": "CCOC(=O)C1=C(C)Nc2nnnn2C1c1ccccc1Cl", "note": "(centres undefined)", "Potency": "inactive"}
{"compound": "CCN1CCN(CCNC(=O)c2ccc(CS(=O)c3ccc(Cl)cc3)o2)CC1", "note": "(centres undefined)", "Potency": "inconclusive: 18.5 µM [inhibitor, single point]"}
{"compound": "COc1ccc(CN2CNc3c(c(=O)n(C)c(=O)n3C)C2)cc1", "Potency": "inconclusive: 18.5 µM [inhibitor, single point]"}
{"compound": "CCN(CC)S(=O)(=O)c1ccc(N2CCCC2)c(C(=O)OCC(=O)Nc2cc(C)on2)c1", "Potency": "inconclusive: 18.5 µM [inhibitor, single point]"}
{"compound": "c1ccc(OCc2nn3c(-c4cccnc4)nnc3s2)cc1", "Potency": "active: 11.7 µM"}
{"compound": "O=C(CSc1ncn(-c2ccccc2)n1)N1CCN(c2ccccc2)CC1", "Potency": "inactive"}
{"compound": "O=C(NCCN1CCN(S(=O)(=O)c2ccc([N+](=O)[O-])cc2)CC1)C(=O)Nc1ccccc1", "Potency": "inconclusive: 4.65 µM [inhibitor, partial curve]"}
{"compound": "NS(=O)(=O)c1ccc(NC(=O)c2ccc(CNS(=O)(=O)c3cc(C(F)(F)F)ccc3Cl)cc2)cc1", "Potency": "inactive"}
{"compound": "CCOc1cc(NC(=S)NCCCN2CCOCC2)c(OCC)cc1NC(=O)c1ccc(OC)cc1", "Potency": "inconclusive: 10.4 µM [inhibitor, partial curve]"}
{"compound": "Cc1cc(C)n2nc(C(=O)Nc3ccc(S(=O)(=O)N(C)C)cc3)nc2n1", "Potency": "inconclusive: 1.17 µM [inhibitor, partial curve, poor fit]"}
{"compound": "COc1cccc(NC(=O)CN(C)C(=O)COc2ccc3ccccc3c2)c1", "Potency": "inactive"}
{"compound": "CS(=O)(=O)Nc1ccc(C(=O)Nc2ccc(S(=O)(=O)Nc3nccs3)cc2)cc1", "Potency": "inconclusive: 10.4 µM [inhibitor, single point]"}
{"compound": "CC(C)N(CCCNC(=O)CC1Oc2ccccc2NC1=O)Cc1ccccc1", "note": "(centres undefined)", "Potency": "inconclusive: 18.5 µM [inhibitor, single point]"}
{"compound": "CN(C)S(=O)(=O)c1cccc(NC(=O)CSc2nc3ccccc3n2-c2ccccc2)c1", "Potency": "inconclusive: 10.4 µM [inhibitor, partial curve]"}
{"compound": "O=C(O)CSc1sc(=S)sc1SCC(=O)O", "Potency": "inconclusive: 0.0029 µM [inhibitor, full curve, poor fit]"}
{"compound": "O=C(NCCCNc1ccc(C(F)(F)F)cc1[N+](=O)[O-])c1ccc(F)cc1", "Potency": "inconclusive: 5.22 µM [inhibitor, partial curve, poor fit]"}
{"compound": "COc1cccc(OCc2cc(C(=O)N3CCN(C)C(c4ccccc4)C3)no2)c1", "note": "(centres undefined)", "Potency": "inconclusive: 18.5 µM [inhibitor, single point]"}
{"compound": "CC(C)Cc1ccc(CN2CCCC(NC(=O)CCN3CCOCC3)C2)cc1", "note": "(centres undefined)", "Potency": "inconclusive: 0.0033 µM [inhibitor, full curve, poor fit]"}
{"compound": "O=[N+]([O-])c1ccc(N2CCN(Cc3ccc4c(c3)OCO4)CC2)nc1", "Potency": "inconclusive: 18.5 µM [inhibitor, single point]"}
{"compound": "Cc1ccc(C)c(-n2cc[nH]c2=S)c1", "Potency": "inactive"}
{"compound": "O=C(COc1ccc(Br)cc1Cl)N1CCN(c2ncccn2)CC1", "Potency": "inconclusive: 3.7 µM [inhibitor, partial curve, poor fit]"}
{"compound": "CN(CC(=O)Nc1cccc(F)c1)C(=O)CCCc1c[nH]c2ccccc12", "Potency": "inconclusive: 18.5 µM [inhibitor, single point]"}
{"compound": "CCCNC(=O)COc1coc(CN2CCN(c3ccccc3)CC2)cc1=O", "Potency": "inconclusive: 18.5 µM [inhibitor, single point]"}
{"compound": "O=C(Oc1cccc2ccccc12)c1ccco1", "Potency": "inconclusive: 9.28 µM [inhibitor, single point]"}
{"compound": "Fc1ccccc1-n1cc(-c2ccccc2)[nH]c1=S", "Potency": "inactive"}
{"compound": "O=S(=O)(CCOc1ccccc1)c1nc2ccccc2[nH]1", "Potency": "inconclusive: 1.17 µM [inhibitor, partial curve, poor fit]"}
{"compound": "CCCc1nc(SCC(=O)Nc2nnc(CC)s2)c2c(=O)n(C)c(=O)n(C)c2n1", "Potency": "inactive"}
{"compound": "Cc1cccc(CC(=O)N2CCC(N3CCC(C(=O)N4CCOCC4)CC3)CC2)c1", "Potency": "inconclusive: 14.7 µM [inhibitor, single point]"}
{"compound": "COc1ccccc1C(=O)Nc1ccc2c(c1)nc(CN1CCCCC1)n2C", "Potency": "inactive"}
{"compound": "Cc1cc(C)nc(Nc2ccccc2F)n1", "Potency": "inactive"}
{"compound": "COc1ccc(NC(=O)c2nc[nH]c2C(=O)N[C@@H](C)C(=O)OC(C)(C)C)cc1", "Potency": "inconclusive: 9.28 µM [inhibitor, single point]"}
{"compound": "Cn1c(SCC(O)c2ccccc2)nnc1-c1ccc2ccccc2c1", "note": "(centres undefined)", "Potency": "inconclusive: 11.7 µM [inhibitor, single point]"}
{"compound": "COc1ccc(Nc2ncc3c(n2)CC(c2ccccc2)CC3=O)cc1", "note": "(centres undefined)", "Potency": "inconclusive: 0.117 µM [inhibitor, full curve, poor fit]"}
{"compound": "COc1cccc(-c2cc(C(=O)NCCc3ccccc3)no2)c1", "Potency": "inactive"}
{"compound": "Cc1cnc(CN(C)Cc2c(C(=O)N3CCCCCCC3)nc3ccc(Cl)cn23)[nH]1", "Potency": "inconclusive: 6.57 µM [inhibitor, partial curve, poor fit]"}
{"compound": "Cc1ccc(C2NC(=O)c3ccccc3N2)s1", "note": "(centres undefined)", "Potency": "inconclusive: 4.65 µM [inhibitor, partial curve, poor fit]"}
{"compound": "O=C(CCn1c(=O)sc2ccccc21)Nc1ccon1", "Potency": "inconclusive: 18.5 µM [inhibitor, single point]"}
{"compound": "CC1Cc2cc(S(=O)(=O)N3CCN(c4ccc(Cl)cc4)CC3)ccc2N1C(=O)C1CC1", "note": "(centres undefined)", "Potency": "active: 14.7 µM"}
{"compound": "CCOc1ccc(CNC(=O)c2ccc(NC(=O)C3=CSCCO3)cc2)cc1", "Potency": "inconclusive: 18.5 µM [inhibitor, single point]"}
{"compound": "O=c1ccc(-c2ccc(S(=O)(=O)Nc3ccccc3)o2)n[nH]1", "Potency": "inconclusive: 14.7 µM [inhibitor, single point]"}
{"compound": "Cc1ccc(C2(c3ccccc3)NC(=O)N(CC(=O)NC3(C#N)CCCC3)C2=O)cc1C", "note": "(centres undefined)", "Potency": "inconclusive: 18.5 µM [inhibitor, single point]"}
{"compound": "Cc1[nH]c2ccccc2c1SCc1nnc(SCc2ccc(Cl)cc2)n1C", "Potency": "inconclusive: 4.65 µM [inhibitor, partial curve]"}
{"compound": "O=C(Cn1ccc2cc(S(=O)(=O)N3CCCC3)ccc21)NCCc1ccccc1", "Potency": "inconclusive: 13.1 µM [inhibitor, single point]"}
{"compound": "COc1cccc(/C=C/C(=O)OCC(=O)NCCc2ccccc2)c1", "Potency": "inactive"}
{"compound": "COc1cc(/C=N/NC(=O)c2ccoc2C)ccc1OCCN1CCCCC1", "Potency": "inconclusive: 18.5 µM [inhibitor, single point]"}
{"compound": "O=C(O)CCn1cc(/C=C/C(=O)c2ccc(Cl)cc2)c(-c2ccc(Br)cc2)n1", "Potency": "inconclusive: 18.5 µM [inhibitor, single point]"}
{"compound": "CCC(C)CCN1C(Nc2ccccc2)=NC[C@@H]1C", "note": "(some centres undefined)", "Potency": "inactive"}
{"compound": "CCN(CC(=O)Nc1ccc(OC)cc1)CC(=O)Nc1ccc2c(c1)OCO2", "Potency": "inconclusive: 18.5 µM [inhibitor, single point]"}
{"compound": "COc1ccc2nc(SCC(=O)N3CCNC3=O)[nH]c2c1", "Potency": "inactive"}
{"compound": "O=C(CCC1CCCN(C(=O)C2=CCCCC2)C1)N1CCN(c2ccccn2)CC1", "note": "(centres undefined)", "Potency": "inactive"}
{"compound": "S=C(NCCc1ccccc1)NCc1cccc(Cl)c1", "Potency": "inconclusive: 20.8 µM [inhibitor, partial curve, poor fit]"}
{"compound": "CC(OC(=O)c1ccc(S(=O)(=O)N2CCOCC2)cc1)c1ccccc1", "note": "(centres undefined)", "Potency": "inconclusive: 11.7 µM [inhibitor, partial curve, poor fit]"}
{"compound": "O=C(Cn1nc(C(F)(F)F)c2c1CCCC2)Nc1ccc2c(c1)OCO2", "Potency": "inconclusive: 5.86 µM [inhibitor, partial curve]"}
{"compound": "COc1cccc(/C=N/N2CCN(c3ccncc3S(=O)(=O)N3CCCCC3)CC2)c1", "Potency": "inconclusive: 13.1 µM [inhibitor, single point]"}
{"compound": "COc1cc2c(cc1OC)C(COc1ccc([N+](=O)[O-])cc1)N(C(C)=O)CC2", "note": "(centres undefined)", "Potency": "inactive"}
